According to the supplement of paper PMC10849652:
This is one part of the list.

Chains of the proteins cited; added tags and fusions are not shown. Lines headed by an entry give the natural chain unless they say otherwise; changes in a name come on top.
UniProt Q01130: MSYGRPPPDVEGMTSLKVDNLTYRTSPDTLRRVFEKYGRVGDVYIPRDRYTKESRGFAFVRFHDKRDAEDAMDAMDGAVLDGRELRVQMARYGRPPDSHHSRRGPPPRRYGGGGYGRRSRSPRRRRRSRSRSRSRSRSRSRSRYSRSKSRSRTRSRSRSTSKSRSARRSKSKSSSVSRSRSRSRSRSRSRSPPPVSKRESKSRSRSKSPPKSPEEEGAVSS
UniProt P52630: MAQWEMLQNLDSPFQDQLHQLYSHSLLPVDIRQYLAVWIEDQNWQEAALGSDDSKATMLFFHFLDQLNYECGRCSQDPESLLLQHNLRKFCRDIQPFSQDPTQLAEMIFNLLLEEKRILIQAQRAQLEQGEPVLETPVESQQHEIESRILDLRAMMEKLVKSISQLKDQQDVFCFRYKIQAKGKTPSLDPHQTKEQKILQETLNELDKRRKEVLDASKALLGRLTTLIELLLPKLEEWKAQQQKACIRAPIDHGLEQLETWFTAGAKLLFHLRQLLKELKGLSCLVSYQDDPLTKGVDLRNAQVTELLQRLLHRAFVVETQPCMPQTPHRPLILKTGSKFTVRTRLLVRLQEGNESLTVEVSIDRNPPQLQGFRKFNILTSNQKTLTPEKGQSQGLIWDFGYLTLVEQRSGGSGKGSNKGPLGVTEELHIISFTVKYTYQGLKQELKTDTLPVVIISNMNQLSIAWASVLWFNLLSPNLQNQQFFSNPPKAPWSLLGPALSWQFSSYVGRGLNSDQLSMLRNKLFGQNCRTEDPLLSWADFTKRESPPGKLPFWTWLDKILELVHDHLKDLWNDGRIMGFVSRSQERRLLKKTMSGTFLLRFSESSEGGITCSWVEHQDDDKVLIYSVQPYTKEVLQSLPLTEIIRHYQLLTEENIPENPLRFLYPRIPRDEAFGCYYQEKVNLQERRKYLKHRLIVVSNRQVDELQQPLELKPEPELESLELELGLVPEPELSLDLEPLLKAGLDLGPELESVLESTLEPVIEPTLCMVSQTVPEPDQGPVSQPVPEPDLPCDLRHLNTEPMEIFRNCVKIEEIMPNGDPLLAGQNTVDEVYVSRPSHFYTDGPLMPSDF
UniProt Q8NEF9: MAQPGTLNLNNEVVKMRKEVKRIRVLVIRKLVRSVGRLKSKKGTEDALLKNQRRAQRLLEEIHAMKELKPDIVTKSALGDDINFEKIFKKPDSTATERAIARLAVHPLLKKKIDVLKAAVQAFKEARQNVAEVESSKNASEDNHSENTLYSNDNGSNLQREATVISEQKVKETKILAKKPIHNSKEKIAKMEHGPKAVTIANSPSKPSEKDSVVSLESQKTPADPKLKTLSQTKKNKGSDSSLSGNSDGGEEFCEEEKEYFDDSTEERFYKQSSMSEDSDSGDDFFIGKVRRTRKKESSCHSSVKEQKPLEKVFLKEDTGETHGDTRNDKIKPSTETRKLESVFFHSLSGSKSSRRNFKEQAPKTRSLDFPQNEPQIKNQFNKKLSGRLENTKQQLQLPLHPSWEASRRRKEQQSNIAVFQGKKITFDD
UniProt P08240: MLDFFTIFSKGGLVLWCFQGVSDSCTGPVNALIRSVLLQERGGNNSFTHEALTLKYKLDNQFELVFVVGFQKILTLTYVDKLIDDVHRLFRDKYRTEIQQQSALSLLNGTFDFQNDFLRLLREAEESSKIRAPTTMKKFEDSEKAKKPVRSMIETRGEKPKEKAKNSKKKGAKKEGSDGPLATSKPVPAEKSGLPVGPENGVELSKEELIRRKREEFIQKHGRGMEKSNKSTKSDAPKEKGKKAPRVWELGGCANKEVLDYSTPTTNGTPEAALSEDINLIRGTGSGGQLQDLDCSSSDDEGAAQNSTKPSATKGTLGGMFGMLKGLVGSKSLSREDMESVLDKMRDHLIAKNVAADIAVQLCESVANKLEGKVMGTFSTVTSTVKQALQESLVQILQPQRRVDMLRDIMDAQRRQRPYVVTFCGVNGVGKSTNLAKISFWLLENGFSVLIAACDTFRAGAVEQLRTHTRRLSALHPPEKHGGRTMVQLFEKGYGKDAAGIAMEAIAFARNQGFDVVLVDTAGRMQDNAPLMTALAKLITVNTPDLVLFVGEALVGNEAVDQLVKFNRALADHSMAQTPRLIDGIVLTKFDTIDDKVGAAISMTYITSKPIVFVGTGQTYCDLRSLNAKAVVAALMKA
UniProt Q08170: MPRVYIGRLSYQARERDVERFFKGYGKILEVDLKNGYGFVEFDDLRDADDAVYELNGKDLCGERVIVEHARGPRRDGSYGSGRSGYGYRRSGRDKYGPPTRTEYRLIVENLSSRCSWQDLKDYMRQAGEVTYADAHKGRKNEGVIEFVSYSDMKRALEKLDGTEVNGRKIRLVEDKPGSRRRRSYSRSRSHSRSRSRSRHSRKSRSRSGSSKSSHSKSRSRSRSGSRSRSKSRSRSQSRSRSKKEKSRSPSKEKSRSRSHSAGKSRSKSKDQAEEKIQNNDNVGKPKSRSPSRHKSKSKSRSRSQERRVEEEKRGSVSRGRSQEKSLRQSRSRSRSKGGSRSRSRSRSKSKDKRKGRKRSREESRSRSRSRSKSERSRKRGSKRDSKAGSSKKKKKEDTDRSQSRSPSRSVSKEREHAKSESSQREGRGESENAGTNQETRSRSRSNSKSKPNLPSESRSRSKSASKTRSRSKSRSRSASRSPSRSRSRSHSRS
UniProt Q6ZRS2, whole entry, looked up: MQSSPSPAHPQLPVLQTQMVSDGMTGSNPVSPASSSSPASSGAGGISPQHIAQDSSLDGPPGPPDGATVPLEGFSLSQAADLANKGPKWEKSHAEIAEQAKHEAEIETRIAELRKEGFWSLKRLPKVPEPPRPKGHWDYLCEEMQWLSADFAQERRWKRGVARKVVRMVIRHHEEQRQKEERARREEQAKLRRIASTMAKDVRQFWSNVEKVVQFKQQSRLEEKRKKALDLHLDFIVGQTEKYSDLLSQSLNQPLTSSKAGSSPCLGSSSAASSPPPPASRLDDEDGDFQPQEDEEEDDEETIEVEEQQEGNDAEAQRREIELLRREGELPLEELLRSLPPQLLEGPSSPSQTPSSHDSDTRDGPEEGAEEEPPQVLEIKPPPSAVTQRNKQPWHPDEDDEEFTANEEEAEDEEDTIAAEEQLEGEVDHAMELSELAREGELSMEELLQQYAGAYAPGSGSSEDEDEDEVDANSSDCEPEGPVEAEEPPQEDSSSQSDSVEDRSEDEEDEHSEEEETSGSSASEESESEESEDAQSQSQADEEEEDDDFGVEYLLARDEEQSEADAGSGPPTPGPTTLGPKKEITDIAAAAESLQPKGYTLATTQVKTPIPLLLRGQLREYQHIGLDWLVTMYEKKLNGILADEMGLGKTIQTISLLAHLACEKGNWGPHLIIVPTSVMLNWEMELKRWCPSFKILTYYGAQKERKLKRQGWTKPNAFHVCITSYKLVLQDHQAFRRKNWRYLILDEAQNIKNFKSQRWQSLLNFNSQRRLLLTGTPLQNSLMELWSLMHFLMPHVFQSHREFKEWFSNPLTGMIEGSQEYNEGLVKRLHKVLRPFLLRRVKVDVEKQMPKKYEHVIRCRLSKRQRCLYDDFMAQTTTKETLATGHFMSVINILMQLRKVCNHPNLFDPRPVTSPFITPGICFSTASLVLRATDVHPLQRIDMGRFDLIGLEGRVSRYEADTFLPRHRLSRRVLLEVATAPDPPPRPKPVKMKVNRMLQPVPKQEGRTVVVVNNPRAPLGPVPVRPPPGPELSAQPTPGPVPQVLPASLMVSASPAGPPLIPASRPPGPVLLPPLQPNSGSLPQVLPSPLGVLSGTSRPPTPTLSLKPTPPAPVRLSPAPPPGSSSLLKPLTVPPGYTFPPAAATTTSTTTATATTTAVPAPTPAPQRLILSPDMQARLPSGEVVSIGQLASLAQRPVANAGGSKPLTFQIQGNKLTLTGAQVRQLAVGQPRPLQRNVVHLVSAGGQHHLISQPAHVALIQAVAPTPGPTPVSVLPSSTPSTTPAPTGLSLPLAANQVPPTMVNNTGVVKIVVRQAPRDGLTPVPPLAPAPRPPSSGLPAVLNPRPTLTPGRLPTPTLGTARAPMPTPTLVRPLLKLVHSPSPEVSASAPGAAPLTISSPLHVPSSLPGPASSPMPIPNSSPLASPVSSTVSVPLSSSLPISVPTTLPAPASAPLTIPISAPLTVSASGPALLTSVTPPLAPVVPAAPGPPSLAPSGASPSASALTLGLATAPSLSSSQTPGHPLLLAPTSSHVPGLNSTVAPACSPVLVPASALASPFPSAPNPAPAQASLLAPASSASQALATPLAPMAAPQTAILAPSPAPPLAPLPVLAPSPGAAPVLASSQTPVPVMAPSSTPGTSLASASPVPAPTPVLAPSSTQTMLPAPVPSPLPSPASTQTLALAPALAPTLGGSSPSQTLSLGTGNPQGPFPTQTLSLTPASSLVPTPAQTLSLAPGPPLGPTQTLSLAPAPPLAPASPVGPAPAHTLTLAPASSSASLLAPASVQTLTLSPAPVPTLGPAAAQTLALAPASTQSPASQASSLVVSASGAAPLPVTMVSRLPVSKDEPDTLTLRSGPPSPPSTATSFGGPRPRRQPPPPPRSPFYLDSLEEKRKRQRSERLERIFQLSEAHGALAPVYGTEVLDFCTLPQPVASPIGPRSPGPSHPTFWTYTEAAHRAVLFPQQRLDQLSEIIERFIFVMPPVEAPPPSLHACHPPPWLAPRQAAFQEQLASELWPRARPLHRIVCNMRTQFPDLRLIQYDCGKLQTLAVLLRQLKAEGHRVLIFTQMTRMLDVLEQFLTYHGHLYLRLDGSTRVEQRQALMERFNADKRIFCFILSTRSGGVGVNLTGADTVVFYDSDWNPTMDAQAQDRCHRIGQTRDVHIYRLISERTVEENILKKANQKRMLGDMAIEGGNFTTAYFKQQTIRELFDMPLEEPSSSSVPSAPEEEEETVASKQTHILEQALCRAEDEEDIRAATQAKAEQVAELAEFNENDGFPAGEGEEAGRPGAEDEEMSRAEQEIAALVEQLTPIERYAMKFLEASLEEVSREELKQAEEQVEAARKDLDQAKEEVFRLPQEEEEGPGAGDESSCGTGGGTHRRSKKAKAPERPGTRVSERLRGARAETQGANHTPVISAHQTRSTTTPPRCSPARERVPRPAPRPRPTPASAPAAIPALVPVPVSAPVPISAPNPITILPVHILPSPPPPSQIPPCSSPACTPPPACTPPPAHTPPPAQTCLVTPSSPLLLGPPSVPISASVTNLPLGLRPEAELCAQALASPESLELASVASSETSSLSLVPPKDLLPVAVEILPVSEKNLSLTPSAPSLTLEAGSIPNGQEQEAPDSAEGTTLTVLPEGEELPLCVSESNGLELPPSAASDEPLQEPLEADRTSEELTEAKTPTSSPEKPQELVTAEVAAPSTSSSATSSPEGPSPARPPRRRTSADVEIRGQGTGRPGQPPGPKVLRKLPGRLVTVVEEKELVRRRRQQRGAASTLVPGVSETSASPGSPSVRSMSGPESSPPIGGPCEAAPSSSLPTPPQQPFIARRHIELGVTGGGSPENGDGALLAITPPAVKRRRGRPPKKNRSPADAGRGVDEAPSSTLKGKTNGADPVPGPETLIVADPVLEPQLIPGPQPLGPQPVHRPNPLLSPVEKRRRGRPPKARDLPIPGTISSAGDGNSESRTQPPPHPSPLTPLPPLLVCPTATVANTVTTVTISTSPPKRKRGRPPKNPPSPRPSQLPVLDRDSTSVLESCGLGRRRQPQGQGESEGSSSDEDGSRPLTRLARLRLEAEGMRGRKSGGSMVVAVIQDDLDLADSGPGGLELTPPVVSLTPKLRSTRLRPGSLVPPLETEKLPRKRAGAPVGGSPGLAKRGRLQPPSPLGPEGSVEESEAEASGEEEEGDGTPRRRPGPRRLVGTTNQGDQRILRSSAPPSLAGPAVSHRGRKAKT
UniProt Q9P289: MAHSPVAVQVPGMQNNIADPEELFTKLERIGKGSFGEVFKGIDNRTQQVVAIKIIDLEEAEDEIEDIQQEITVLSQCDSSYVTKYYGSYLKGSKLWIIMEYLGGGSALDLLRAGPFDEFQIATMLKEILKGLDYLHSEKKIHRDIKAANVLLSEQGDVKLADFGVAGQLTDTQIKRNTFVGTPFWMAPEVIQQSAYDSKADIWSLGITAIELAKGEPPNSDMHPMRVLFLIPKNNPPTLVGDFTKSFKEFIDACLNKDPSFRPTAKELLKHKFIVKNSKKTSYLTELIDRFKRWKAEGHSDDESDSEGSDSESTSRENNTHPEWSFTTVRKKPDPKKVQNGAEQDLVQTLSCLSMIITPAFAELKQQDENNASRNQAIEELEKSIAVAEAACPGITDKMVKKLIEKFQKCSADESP

Legend:
Assay in all cases: log2 fold change, soluble protein after heating vs DMSO (PISA); higher = thermal stabilisation; K562 cells, 10 uM, 30 min; active = over 0.2 and 3.5 SD of the protein, either way, in both replicates (recomputed)
[1] = compound: CC1=C(C=C(C=C1)NC(=O)C2=CC(=CC=C2)C(C)(C)C#N)NC3=CC4=C(C=C3)N=CN(C4=O)C
Summary of the method: (§1)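 Quantification of soluble protein used TMTpro 16plex LC-MS/MS, with channel sums equalised. Samples were the supernatant after 21,000xg for 90 min of pooled aliquots from K562 cells (2×10^6 cells/mL) treated with 10 μM compound for 30 min, heated for 3 min over 48°C-58°C, and extracted in PBS with 0.5% NP-40 at 4°C. Values, from duplicates, describe thermal stability against control samples on a log2 fold-change scale.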

[2] = compound: CC1=CC=C(C=C1)SC2=C3C=C(SC3=CN=C2)C(=O)N
Summary of the method: as §1

[3] = compound: CC1=NC(=CC=C1)C2=C(N=C(N2)C(C)(C)C)C3=CC4=NC=CN=C4C=C3
Summary of the method: as §1

Nexturastat A = compound: CCCCN(Cc1ccc(C(=O)NO)cc1)C(=O)Nc1ccccc1 [Nexturastat A]
Summary of the method: as §1

vemurafenib = compound: CCCS(=O)(=O)Nc1ccc(F)c(C(=O)c2c[nH]c3ncc(-c4ccc(Cl)cc4)cc23)c1F [vemurafenib]
Summary of the method: as §1

[4] = compound: CCCS(=O)(=O)Nc1ccc(F)c(C(=O)c2c[nH]c3ncc(Cl)cc23)c1F
Summary of the method: as §1

[5] = compound: CCCc1cc(C)[nH]c(=O)c1CNC(=O)c1cc(-c2ccnc(N3CCN(C)CC3)c2)cc2c1cnn2C(C)C
Summary of the method: as §1

givinostat = compound: CCN(CC)Cc1ccc2cc(COC(=O)Nc3ccc(C(=O)NO)cc3)ccc2c1 [givinostat]
Summary of the method: as §1

barasertib = compound: CCN(CCCOc1ccc2c(Nc3cc(CC(=O)Nc4cccc(F)c4)[nH]n3)ncnc2c1)CCOP(=O)(O)O [barasertib]
Summary of the method: as §1

[6] = compound: CC[C@@H]1C(=O)N(C)c2cnc(Nc3ccc(C(=O)NC4CCN(C)CC4)cc3OC)nc2N1C1CCCC1
Summary of the method: as §1

volasertib = compound: CC[C@@H]1C(=O)N(C)c2cnc(Nc3ccc(C(=O)N[C@H]4CC[C@H](N5CCN(CC6CC6)CC5)CC4)cc3OC)nc2N1C(C)C [volasertib]
Summary of the method: as §1

[7] = compound: CC[C@H](C)N1C=C(C2=C(C=C(C=C21)C3=CN=C(C=C3)N4CCNCC4)C(=O)NCC5=C(C=C(NC5=O)C)C)C
Summary of the method: as §1

epoxomicin = compound: CC[C@H](C)[C@@H](C(=O)N[C@@H]([C@@H](C)O)C(=O)N[C@@H](CC(C)C)C(=O)[C@]1(CO1)C)NC(=O)[C@H]([C@@H](C)CC)N(C)C(=O)C [epoxomicin]
Summary of the method: as §1

[8] = compound: CCn1cc(-c2ccnc3[nH]c(-c4cccc(CN(C)C)c4)cc23)c(-c2ccc(NC(=O)N(C)C)cc2)n1
Summary of the method: as §1

[9] = compound: CN(C)CC(=O)Nc1ccc2[nH]c(=O)c3ccccc3c2c1
Summary of the method: as §1

[10] = compound: CN1C2=C(C3=C1C(=O)N(N=C3)CC4=CC(=CC=C4)N)SC(=C2)S(=O)C
Summary of the method: as §1

[11] = compound: CN1CCC(CNc2ccc3ncc(-c4cccc(OC(F)(F)F)c4)n3n2)CC1
Summary of the method: as §1

[12] = compound: CC1=C(C=C(C=C1)NC(=O)C2=CC(=CC=C2)N(C)C)NC(=O)C3=CC=C(C=C3)O
Summary of the method: as §1

rosiglitazone = compound: CN(CCOC1=CC=C(C=C1)C[C@H]2C(=O)NC(=O)S2)C3=CC=CC=N3 (racemic) [rosiglitazone]
Summary of the method: as §1

[13] = compound: CCn1c(C(=O)N(C2CC2)C2CC2)cc2c3c(ncn3C)c(Nc3cc(C)n(C)n3)nc21
Summary of the method: as §1

Row | Target | log2 fold change [1] | log2 fold change [2] | log2 fold change [3] | log2 fold change (Nexturastat A) | log2 fold change (vemurafenib) | log2 fold change [4] | log2 fold change [5] | log2 fold change (givinostat) | log2 fold change (barasertib) | log2 fold change [6] | log2 fold change (volasertib) | log2 fold change [7] | log2 fold change (epoxomicin) | log2 fold change [8] | log2 fold change [9] | log2 fold change [10] | log2 fold change [11] | log2 fold change [12] | log2 fold change (rosiglitazone) | log2 fold change [13]
1 | STK11IP (UniProt Q8N1F8) | inactive: 0.095 | inactive: 0.038 | inactive: -0.071 | inactive: 0.118 | inactive: -0.159 | inactive: 0.061 | inactive: 0.063 | inactive: -0.017 | inactive: 0.008 | inactive: -0.224 | active: -0.517 | inactive: 0.103 | inactive: 0.069 | inactive: -0.006 | inactive: 0.025 | inactive: 0.026 | inactive: -0.233 |  |  | 
2 | STAM2 (UniProt O75886) | inactive: -0.08 | inactive: 0.034 | inactive: 0.069 | inactive: -0.012 | inactive: 0.009 | inactive: 0.074 | inactive: -0.038 | inactive: 0.021 | inactive: 0.028 | inactive: -0.039 | active: -0.297 | inactive: 0.063 | inactive: 0.039 | inactive: -0.056 | inactive: 0 | inactive: -0.033 | inactive: -0.128 | inactive: -0.032 |  | 
3 | SPATA31E1 (UniProt Q6ZUB1) | inactive: -0.192 | inactive: -0.167 | inactive: -0.143 |  | inactive: -0.121 | inactive: -0.374 | inactive: -0.297 |  | inactive: 0.094 | inactive: 0.251 | inactive: 0.122 | inactive: -0.292 |  | inactive: 0.232 | inactive: 0.017 | inactive: 0.045 | inactive: -0.202 | inactive: -0.102 | inactive: 0.074 | 
4 | SRSF2 (UniProt Q01130) | inactive: -0.023 | inactive: -0.033 | inactive: -0.032 | inactive: 0.036 | inactive: -0.046 | inactive: -0.025 | inactive: -0.023 | inactive: 0.005 | inactive: -0.007 | inactive: 0.087 | inactive: 0.134 | inactive: -0.027 | inactive: -0.069 | inactive: 0.022 | inactive: -0.082 | inactive: 0.045 | inactive: 0.054 | inactive: 0.053 |  | 
5 | SPATA33 isoform 2 (UniProt Q96N06) | inactive: 0.002 | inactive: -0.049 |  |  | inactive: 0.034 | inactive: 0.095 |  | inactive: 0.132 | inactive: -0.109 | inactive: -0.092 | inactive: 0.102 | inactive: -0.098 |  | inactive: -0.008 | inactive: -0.066 | inactive: -0.06 | inactive: 0.048 | inactive: 0.065 | inactive: 0.052 | inactive: -0.128
6 | SPDL1 (UniProt Q96EA4) | inactive: -0.206 | inactive: -0.193 |  |  |  | inactive: 0.213 |  | inactive: 0.282 |  | inactive: -0.092 | inactive: -0.282 |  |  |  |  | inactive: 0.23 |  | inactive: -0.258 |  | inactive: -0.321
7 | SPECC1 (UniProt Q5M775) | inactive: -0.028 | inactive: 0.094 | inactive: -0.063 | inactive: -0.08 | inactive: -0.094 | inactive: -0.06 | inactive: -0.102 | inactive: 0.035 | inactive: 0.062 | inactive: 0.109 | inactive: 0.052 | inactive: -0.013 | inactive: -0.101 | inactive: 0.004 | inactive: -0.111 | inactive: 0.07 | inactive: -0.012 | inactive: -0.015 |  | 
8 | SREK1 isoform 2 (UniProt Q8WXA9) | inactive: -0.335 | inactive: 0 | inactive: 0.045 | inactive: 0.108 | inactive: 0.019 | inactive: 0.096 | inactive: -0.069 | inactive: 0.062 | inactive: -0.057 | inactive: -0.122 | inactive: -0.22 | inactive: 0.037 | inactive: -0.021 | inactive: -0.098 | inactive: -0.029 | inactive: 0.026 | inactive: -0.035 | inactive: -0.083 |  | 
9 | STAT2 (UniProt P52630) | inactive: -0.241 |  | inactive: -0.088 |  | inactive: 0.044 |  | inactive: 0.185 | inactive: 0.216 | inactive: 0.103 | inactive: 0.003 |  |  |  | inactive: 0.284 | inactive: -0.134 | inactive: 0.27 | inactive: -0.086 | inactive: -0.132 | inactive: 0.181 | inactive: -0.1
10 | SRFBP1 (UniProt Q8NEF9) | inactive: 0.008 | inactive: -0.127 | inactive: -0.025 | inactive: 0.111 |  | inactive: -0.012 | inactive: -0.012 | inactive: -0.061 | inactive: -0.045 | inactive: 0.208 | inactive: 0.157 | inactive: -0.094 | inactive: -0.047 | inactive: 0.049 |  | inactive: 0.117 | inactive: 0.277 | inactive: -0.019 |  | 
11 | STK25 (UniProt O00506) | inactive: -0.102 | inactive: -0.011 | inactive: 0.029 | inactive: -0.006 | inactive: -0.021 | inactive: 0.011 | inactive: -0.052 | inactive: 0.056 | inactive: 0.025 | inactive: -0.031 | inactive: -0.107 | inactive: 0.024 | inactive: 0.033 | inactive: -0.008 | inactive: -0.024 | inactive: 0.017 | inactive: -0.216 | inactive: 0.014 |  | 
12 | SRPRA (UniProt P08240) | inactive: 0.089 | inactive: 0.018 | inactive: 0.047 | inactive: 0 | inactive: 0.038 | inactive: 0.069 | inactive: 0.001 | inactive: 0.018 | inactive: 0.04 | inactive: -0.116 | inactive: -0.107 | inactive: 0.007 | inactive: 0.02 | inactive: -0.036 | inactive: 0.032 | inactive: -0.055 | inactive: 0.009 | inactive: -0.06 |  | 
13 | STIM1 (UniProt Q13586) | inactive: 0.014 | inactive: 0.028 | inactive: 0.045 | inactive: -0.066 | inactive: -0.006 | inactive: 0.034 | inactive: -0.015 | inactive: 0.009 | inactive: 0.008 | inactive: -0.116 | inactive: -0.206 | inactive: 0.025 | inactive: 0.028 | inactive: 0.023 | inactive: 0.007 | inactive: -0.047 | inactive: -0.195 | inactive: 0.003 |  | 
14 | SSB (UniProt P05455) | inactive: -0.02 | inactive: -0.026 | inactive: 0.024 | inactive: 0.019 | inactive: -0.003 | inactive: 0.003 | inactive: 0.036 | inactive: -0.175 | inactive: 0.074 | inactive: -0.154 | inactive: -0.131 | inactive: 0.083 | inactive: -0.011 | inactive: 0.04 | inactive: -0.012 | inactive: -0.001 | inactive: -0.194 | inactive: 0.024 |  | 
15 | SRSF4 (UniProt Q08170) | inactive: 0.042 | inactive: -0.067 | inactive: -0.032 | inactive: 0.074 | inactive: -0.027 | inactive: 0.017 | inactive: 0.224 | inactive: 0.052 | inactive: -0.064 | inactive: 0.091 | inactive: -0.001 | inactive: 0.011 | inactive: -0.175 | inactive: 0.115 | inactive: -0.09 | inactive: 0.205 | inactive: 0.087 | inactive: -0.001 |  | 
16 | SRCAP (UniProt Q6ZRS2) | inactive: -0.177 | inactive: 0.058 | inactive: 0.036 |  | inactive: 0.278 | inactive: 0.082 | inactive: -0.02 | inactive: -0.041 | inactive: 0.026 | inactive: 0.068 | inactive: -0.207 | inactive: -0.059 |  | inactive: -0.041 | inactive: 0.121 | inactive: -0.001 | inactive: -0.006 | inactive: -0.286 |  | 
17 | STK26 (UniProt Q9P289) | inactive: -0.083 | inactive: 0.068 | inactive: 0.015 | inactive: 0.044 | inactive: -0.04 | inactive: -0.03 | inactive: 0.014 | inactive: 0.086 | inactive: 0.08 | inactive: -0.017 | inactive: -0.062 | inactive: 0.018 | inactive: 0.084 | inactive: -0.117 | inactive: -0.033 | inactive: 0.014 | inactive: -0.191 | inactive: -0.037 |  | 
18 | SPPL2A (UniProt Q8TCT8) | inactive: -0.088 | inactive: -0.055 | inactive: -0.082 | inactive: -0.004 | inactive: 0.026 | inactive: 0 | inactive: 0.084 | inactive: 0.005 | inactive: 0.021 | inactive: 0.014 | inactive: 0.046 |  | inactive: 0.058 | inactive: 0.083 | inactive: -0.024 | inactive: 0.025 | inactive: -0.047 | inactive: 0.007 | inactive: -0.128 | inactive: -0.099
19 | SRRD (UniProt Q9UH36) | inactive: -0.101 | inactive: -0.01 | inactive: -0.122 | inactive: -0.039 |  | inactive: 0 | inactive: 0.204 | inactive: -0.02 | inactive: 0.115 | inactive: -0.055 | inactive: -0.042 | inactive: 0.127 | inactive: -0.068 |  |  |  |  |  | inactive: 0.014 | inactive: -0.057

Another view of part of the listing above:

| Row | Target | log2 fold change [1] | log2 fold change [2] | log2 fold change [3] | log2 fold change (Nexturastat A) | log2 fold change (vemurafenib) | log2 fold change [4] | log2 fold change [5] | log2 fold change (givinostat) | log2 fold change (barasertib) | log2 fold change [6] | log2 fold change (volasertib) | log2 fold change [7] | log2 fold change (epoxomicin) | log2 fold change [8] | log2 fold change [9] | log2 fold change [10] | log2 fold change [11] | log2 fold change [12] | log2 fold change (rosiglitazone) | log2 fold change [13] |
| --- | --- | --- | --- | --- | --- | --- | --- | --- | --- | --- | --- | --- | --- | --- | --- | --- | --- | --- | --- | --- | --- |
| 6 | SPDL1 (UniProt Q96EA4) | inactive: -0.206 | inactive: -0.193 |  |  |  | inactive: 0.213 |  | inactive: 0.282 |  | inactive: -0.092 | inactive: -0.282 |  |  |  |  | inactive: 0.23 |  | inactive: -0.258 |  | inactive: -0.321 |
| 7 | SPECC1 (UniProt Q5M775) | inactive: -0.028 | inactive: 0.094 | inactive: -0.063 | inactive: -0.08 | inactive: -0.094 | inactive: -0.06 | inactive: -0.102 | inactive: 0.035 | inactive: 0.062 | inactive: 0.109 | inactive: 0.052 | inactive: -0.013 | inactive: -0.101 | inactive: 0.004 | inactive: -0.111 | inactive: 0.07 | inactive: -0.012 | inactive: -0.015 |  |  |
